Patent publication US20170312282A1, “TYROSINE KINASE INHIBITOR FORMULATIONS FOR THE TREATMENT OF MAST CELL-MEDIATED INFLAMMATORY DISEASES AND METHODS OF USE THEREOF” (The Board of Trustees of the Leland Stanford Junior …, priority 2016, published 2017)
At least one compound was matched to its structure with a doubt left.

Legend:
[1] = system: VEGFRS2, PDGFRB, KIT, RET, CSF1R, FLT3; conditions: one bound for VEGFRS2, PDGFRB; cited from earlier work
[2] = system: nasal polypoid lesions in an allergic rhinosinusitis mouse model; assay: Mouse model of nasal polyposis, intranasal TKI/polymer particle vs TAC (Example 16); assay type: in vivo, BALB/c mice; conditions: intranasal for eight consecutive weeks; six mice per group; eleven lesions in polymer particle group B

Compound: CCN(CC)CCNC(=O)c1c(C)[nH]c(/C=C2\C(=O)Nc3ccc(F)cc32)c1C [Sunitinib]
- IC50 [1]: < 100 nM

Compound: CC1(C)O[C@@H]2C[C@H]3[C@@H]4CCC5=CC(=O)C=C[C@]5(C)[C@@]4(F)[C@@H](O)C[C@]3(C)[C@]2(C(=O)CO)O1 [TAC, triamcinolone acetonide]
- number of polyp-like lesions [2]: seven
